Article PMC5602300
These are yes or no findings as the source states them, for the method shown. Binding seen in cells or lysates may run through a third protein. These calls come from enrichment with a bait or labelling near it, and not all partners need be listed. Where a sequence is shown, tags or fusion partners need not be part of it.

By UniProt entry, the sequences of proteins in these tests, tags left out. Where a name states a change or a piece, a line headed by the entry shows the natural chain unless it says otherwise.
UniProt Q9Y448: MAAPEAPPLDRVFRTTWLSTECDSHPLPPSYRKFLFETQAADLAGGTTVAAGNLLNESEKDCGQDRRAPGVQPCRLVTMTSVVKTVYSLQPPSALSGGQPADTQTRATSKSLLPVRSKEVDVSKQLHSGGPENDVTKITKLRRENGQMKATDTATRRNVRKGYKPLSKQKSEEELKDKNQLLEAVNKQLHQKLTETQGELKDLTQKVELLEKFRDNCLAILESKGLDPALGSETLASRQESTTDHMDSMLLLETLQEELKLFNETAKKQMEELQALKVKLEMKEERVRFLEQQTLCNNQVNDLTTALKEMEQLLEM
UniProt Q96R06: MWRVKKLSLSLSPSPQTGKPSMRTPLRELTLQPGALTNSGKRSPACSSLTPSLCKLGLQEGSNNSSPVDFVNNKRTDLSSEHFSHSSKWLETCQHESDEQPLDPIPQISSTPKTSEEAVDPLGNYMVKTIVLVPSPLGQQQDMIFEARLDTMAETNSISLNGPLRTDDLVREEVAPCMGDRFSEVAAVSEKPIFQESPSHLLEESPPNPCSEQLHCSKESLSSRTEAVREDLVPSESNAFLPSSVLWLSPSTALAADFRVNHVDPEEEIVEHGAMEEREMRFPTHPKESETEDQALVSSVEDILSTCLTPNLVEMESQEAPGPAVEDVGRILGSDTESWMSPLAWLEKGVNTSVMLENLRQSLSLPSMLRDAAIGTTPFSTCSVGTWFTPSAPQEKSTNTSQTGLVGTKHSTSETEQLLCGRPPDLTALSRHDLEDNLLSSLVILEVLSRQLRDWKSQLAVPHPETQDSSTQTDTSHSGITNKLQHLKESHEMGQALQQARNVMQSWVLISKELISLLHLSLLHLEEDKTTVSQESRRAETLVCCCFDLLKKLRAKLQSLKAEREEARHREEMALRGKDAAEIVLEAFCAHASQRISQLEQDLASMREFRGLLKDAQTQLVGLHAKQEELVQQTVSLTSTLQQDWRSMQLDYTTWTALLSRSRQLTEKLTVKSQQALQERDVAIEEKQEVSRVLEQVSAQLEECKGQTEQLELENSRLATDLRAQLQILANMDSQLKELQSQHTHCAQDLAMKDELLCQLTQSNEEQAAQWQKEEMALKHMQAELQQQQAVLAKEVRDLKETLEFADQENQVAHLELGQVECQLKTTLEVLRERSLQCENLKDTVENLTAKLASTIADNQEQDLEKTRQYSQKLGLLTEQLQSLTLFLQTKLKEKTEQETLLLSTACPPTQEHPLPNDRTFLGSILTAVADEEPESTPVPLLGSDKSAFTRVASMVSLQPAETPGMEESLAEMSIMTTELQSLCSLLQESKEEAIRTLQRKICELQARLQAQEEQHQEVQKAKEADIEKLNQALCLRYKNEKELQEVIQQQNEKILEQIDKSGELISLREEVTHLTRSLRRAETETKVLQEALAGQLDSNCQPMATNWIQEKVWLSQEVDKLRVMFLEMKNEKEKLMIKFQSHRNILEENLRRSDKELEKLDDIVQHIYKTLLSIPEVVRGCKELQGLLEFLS

Key:
[1] = target: SKAP (endogenous, HeLa cells) (human (endogenous in HeLa)) (UniProt Q9Y448); assay: affinity purification with mass spectrometry; pooled mass spectrometry data from Astrin and SKAP IPs (data of Kern et al., 2016, reanalysed here)
[2] = target: Astrin (endogenous, HeLa cells) (human (endogenous in HeLa)) (UniProt Q96R06); assay: as above

- binding [1]: binds
- binding [2]: binds
B1: MYCBP (endogenous, human tissue culture cells) (protein, UniProt Q99417 1-103)
chain: MAHYKAADSKREQFRRYLEKSGVLDTLTKVLVALYEEPEKPNSALDFLKHHLGAATPENPEIELLRLELAEMKEKYEAIVEENKKLKAKLAQYEPPQEEKRAE
